Source: patent US20260193369A1
No constants are given. Whether binding was seen depends on the method and setting. Some results given as binding are weak or reduced against the parent protein; the word gives no strength.

Target: T1, Human IL-33 (REGN3931) (human) (UniProt O95760)
T1 sequence: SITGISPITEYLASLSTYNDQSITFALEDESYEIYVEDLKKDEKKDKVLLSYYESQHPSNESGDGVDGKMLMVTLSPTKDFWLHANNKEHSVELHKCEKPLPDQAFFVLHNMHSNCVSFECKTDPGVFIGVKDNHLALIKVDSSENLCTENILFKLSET
Assay: antigen-coated sandwich ELISA, detection with anti-human IgG4

binding: binds
B1: H4H9675P (antibody, human IgG4, V domains shown)
VH: EVQLVESGGNLEQPGGSLRLSCTASGFTFSRSAMNWVRRAPGKGLEWVSGISGSGGRTYYADSVKGRFTISRDNSKNTLYLQMNSLSAEDTAAYYCAKDSYTTSWYGGMDVWGHGTTVTVSS
VL: DIQMTQSPSSVSASVGDRVTITCRASQGIFSWLAWYQQKPGKAPKLLIYAASSLQSGVPSRFSGSGSGTDFTLTISSLQPEDFAIYYCQQANSVPITFGQGTRLEIK
